Measured values reported in PMC10070696.
These are yes or no findings as the source states them, for the method shown. Binding seen in cells or lysates may run through a third protein. Where a sequence is shown, tags or fusion partners need not be part of it. Blank lines part the entries; values can stand above or below the molecule they belong to.

Key:
[1] = target: T1, cLUC-ICE1 (Arabidopsis thaliana) (UniProt Q9LSE2); assay: split reporter; firefly luciferase complementation imaging (LCI): nLUC and cLUC fusions co-expressed in tobacco leaves at 22°C for about 48 h, 1 mM D-luciferin sprayed, low-light imaging
T1 sequence: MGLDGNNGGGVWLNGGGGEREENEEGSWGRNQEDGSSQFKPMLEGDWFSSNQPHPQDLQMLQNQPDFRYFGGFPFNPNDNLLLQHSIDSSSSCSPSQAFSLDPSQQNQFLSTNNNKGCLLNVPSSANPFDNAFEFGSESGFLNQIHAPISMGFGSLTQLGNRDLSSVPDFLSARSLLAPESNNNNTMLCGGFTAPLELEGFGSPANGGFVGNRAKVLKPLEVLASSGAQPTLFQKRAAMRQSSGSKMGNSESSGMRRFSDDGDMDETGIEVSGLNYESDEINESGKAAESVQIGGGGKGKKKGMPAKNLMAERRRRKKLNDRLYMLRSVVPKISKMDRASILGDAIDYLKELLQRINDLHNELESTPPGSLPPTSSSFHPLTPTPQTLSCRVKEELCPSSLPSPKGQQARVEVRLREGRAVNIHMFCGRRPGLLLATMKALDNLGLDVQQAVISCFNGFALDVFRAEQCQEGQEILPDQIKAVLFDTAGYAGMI

[2] = target: T2, cCFP-ICE1 (Arabidopsis thaliana) (UniProt Q9LSE2); assay: split reporter; BiFC: nYFP and cCFP fusions co-expressed for about 48 h in tobacco (Nicotiana benthamiana) leaf epidermal cells, GFP signal by confocal microscopy
T2 sequence: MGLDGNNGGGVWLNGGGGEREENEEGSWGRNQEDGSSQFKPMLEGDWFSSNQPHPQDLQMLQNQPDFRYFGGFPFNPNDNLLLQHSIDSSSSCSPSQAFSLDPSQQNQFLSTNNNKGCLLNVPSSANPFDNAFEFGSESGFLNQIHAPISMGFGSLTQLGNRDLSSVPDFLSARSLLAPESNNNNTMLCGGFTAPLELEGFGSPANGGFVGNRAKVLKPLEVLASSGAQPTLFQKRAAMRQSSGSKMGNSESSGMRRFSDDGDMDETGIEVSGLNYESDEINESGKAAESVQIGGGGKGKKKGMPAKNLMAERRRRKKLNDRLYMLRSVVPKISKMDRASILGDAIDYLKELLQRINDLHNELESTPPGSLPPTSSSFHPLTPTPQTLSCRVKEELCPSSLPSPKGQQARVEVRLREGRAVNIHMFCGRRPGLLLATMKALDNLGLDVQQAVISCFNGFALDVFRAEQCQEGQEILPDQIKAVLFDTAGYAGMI

[3] = target: cCFP (C-terminal half of cyan fluorescent protein) alone; assay: as above
[4] = target: cLUC (C-terminal half of firefly luciferase) alone (firefly); assay: split reporter; firefly luciferase complementation imaging (LCI): nLUC and cLUC fusions co-expressed in tobacco leaves at 22°C for about 48 h, 1 mM D-luciferin sprayed, low-light imaging

Molecule: nLUC (N-terminal half of firefly luciferase) alone (domain or fragment)
binding [1]: no binding

B1: nYFP-LFR (protein, UniProt Q9LS90 1-460)
chain: MQKRELGKSGGNSGGSSGPPAKRGRPFGSTSANSAAAAAAAAAADAMSPSALLGPSLLVHNSFVEQNNRRIVLALQSGLKSEVTWALNTLTLLSFKEKEDIRRDVMPLAKIAGLLDALLLIIDDWRDIALPKDLTRGTRVRTLGTNASVTGFGNEYDALASIQPPGSGIGSSAAEALGKKSTGKHQSSQWWMEEDGLFNLDDEGRSEKQMCAIAASNVIRNFSFMPDNEVVMAQHRHCLETVFQCIHDHMTEDEELVTNSLETIVNLAHLMDLRIFSSLKQSYININEKKAVQAVVGILNSSVKAWNCAAAELLGRLIINPDNEPFISPLIPQIHKRLIDLLSIQAVDAQAAAVGALYNLVEVNMDCRLKLASERWAVDRLLKVIKTPHPVPEVCRKAAMILENLVSEPQNRGLLLAYENAFAELLFQEGKYSDSFARILYELTARSNSRVASARGIWGM
binding [3]: no binding

The next lines start with the values.

binding [2]: no binding
Molecule: nYFP (N-terminal half of yellow fluorescent protein) alone (domain or fragment)

binding [4]: no binding
B2: LFR-nLUC (protein, UniProt Q9LS90 1-460)
chain: MQKRELGKSGGNSGGSSGPPAKRGRPFGSTSANSAAAAAAAAAADAMSPSALLGPSLLVHNSFVEQNNRRIVLALQSGLKSEVTWALNTLTLLSFKEKEDIRRDVMPLAKIAGLLDALLLIIDDWRDIALPKDLTRGTRVRTLGTNASVTGFGNEYDALASIQPPGSGIGSSAAEALGKKSTGKHQSSQWWMEEDGLFNLDDEGRSEKQMCAIAASNVIRNFSFMPDNEVVMAQHRHCLETVFQCIHDHMTEDEELVTNSLETIVNLAHLMDLRIFSSLKQSYININEKKAVQAVVGILNSSVKAWNCAAAELLGRLIINPDNEPFISPLIPQIHKRLIDLLSIQAVDAQAAAVGALYNLVEVNMDCRLKLASERWAVDRLLKVIKTPHPVPEVCRKAAMILENLVSEPQNRGLLLAYENAFAELLFQEGKYSDSFARILYELTARSNSRVASARGIWGM
